Measurements: publication PMC7192513
Results are given in words; binding and its absence hold for the method and conditions named. In cells and extracts the contact can be indirect. These calls come from enrichment with a bait or labelling near it, and not all partners need be listed. A no says only that the protein was not detected with the bait.

By UniProt entry, the sequences of proteins in these tests, tags left out.
UniProt C6KT50: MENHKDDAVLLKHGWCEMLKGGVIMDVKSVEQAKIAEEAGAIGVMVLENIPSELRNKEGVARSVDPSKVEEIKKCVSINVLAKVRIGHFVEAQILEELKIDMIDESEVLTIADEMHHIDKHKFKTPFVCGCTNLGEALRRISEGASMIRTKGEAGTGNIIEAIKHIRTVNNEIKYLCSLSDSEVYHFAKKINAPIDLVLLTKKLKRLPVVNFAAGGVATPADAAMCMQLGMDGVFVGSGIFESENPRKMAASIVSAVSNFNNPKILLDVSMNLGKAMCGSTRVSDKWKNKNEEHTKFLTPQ
UniProt Q8ILW9: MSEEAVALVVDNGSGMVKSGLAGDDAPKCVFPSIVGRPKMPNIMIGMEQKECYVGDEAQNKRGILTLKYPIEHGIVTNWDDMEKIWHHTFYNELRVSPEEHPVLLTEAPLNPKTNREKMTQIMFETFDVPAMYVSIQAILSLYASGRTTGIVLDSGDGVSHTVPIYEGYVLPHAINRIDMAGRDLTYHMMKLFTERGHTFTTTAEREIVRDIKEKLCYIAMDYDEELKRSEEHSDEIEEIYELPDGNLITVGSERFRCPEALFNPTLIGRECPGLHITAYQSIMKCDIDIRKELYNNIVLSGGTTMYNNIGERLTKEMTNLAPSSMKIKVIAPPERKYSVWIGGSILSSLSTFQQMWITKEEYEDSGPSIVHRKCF
UniProt Q9BHN1: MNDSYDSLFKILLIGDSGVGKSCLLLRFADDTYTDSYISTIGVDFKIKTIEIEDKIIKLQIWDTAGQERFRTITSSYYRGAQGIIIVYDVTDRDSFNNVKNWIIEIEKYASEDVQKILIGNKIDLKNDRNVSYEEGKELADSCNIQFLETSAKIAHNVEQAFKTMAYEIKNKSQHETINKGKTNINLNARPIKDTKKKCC
UniProt Q8IBZ9: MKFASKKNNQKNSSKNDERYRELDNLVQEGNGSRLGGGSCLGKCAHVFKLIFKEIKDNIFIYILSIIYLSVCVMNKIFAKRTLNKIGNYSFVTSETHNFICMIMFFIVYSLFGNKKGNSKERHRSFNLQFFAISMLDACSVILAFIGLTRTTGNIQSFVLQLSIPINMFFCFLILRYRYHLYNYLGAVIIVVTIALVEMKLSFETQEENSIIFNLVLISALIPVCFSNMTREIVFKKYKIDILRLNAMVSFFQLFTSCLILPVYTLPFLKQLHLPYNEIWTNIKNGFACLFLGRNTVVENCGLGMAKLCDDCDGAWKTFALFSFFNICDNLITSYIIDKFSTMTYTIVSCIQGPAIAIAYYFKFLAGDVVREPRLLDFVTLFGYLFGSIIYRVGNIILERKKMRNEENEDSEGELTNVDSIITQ
UniProt Q7KQL5: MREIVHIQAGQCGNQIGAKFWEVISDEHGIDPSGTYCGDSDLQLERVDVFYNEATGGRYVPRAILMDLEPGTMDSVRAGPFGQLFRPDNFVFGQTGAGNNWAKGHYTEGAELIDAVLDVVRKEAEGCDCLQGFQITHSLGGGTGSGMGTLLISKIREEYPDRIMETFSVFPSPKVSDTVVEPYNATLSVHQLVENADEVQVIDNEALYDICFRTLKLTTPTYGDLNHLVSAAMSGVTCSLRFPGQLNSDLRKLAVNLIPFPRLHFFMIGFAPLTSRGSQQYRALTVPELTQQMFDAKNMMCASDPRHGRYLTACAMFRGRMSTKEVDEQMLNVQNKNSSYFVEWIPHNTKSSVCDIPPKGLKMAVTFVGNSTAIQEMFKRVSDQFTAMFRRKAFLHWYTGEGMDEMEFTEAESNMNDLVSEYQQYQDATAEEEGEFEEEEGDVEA
UniProt Q8I3V5: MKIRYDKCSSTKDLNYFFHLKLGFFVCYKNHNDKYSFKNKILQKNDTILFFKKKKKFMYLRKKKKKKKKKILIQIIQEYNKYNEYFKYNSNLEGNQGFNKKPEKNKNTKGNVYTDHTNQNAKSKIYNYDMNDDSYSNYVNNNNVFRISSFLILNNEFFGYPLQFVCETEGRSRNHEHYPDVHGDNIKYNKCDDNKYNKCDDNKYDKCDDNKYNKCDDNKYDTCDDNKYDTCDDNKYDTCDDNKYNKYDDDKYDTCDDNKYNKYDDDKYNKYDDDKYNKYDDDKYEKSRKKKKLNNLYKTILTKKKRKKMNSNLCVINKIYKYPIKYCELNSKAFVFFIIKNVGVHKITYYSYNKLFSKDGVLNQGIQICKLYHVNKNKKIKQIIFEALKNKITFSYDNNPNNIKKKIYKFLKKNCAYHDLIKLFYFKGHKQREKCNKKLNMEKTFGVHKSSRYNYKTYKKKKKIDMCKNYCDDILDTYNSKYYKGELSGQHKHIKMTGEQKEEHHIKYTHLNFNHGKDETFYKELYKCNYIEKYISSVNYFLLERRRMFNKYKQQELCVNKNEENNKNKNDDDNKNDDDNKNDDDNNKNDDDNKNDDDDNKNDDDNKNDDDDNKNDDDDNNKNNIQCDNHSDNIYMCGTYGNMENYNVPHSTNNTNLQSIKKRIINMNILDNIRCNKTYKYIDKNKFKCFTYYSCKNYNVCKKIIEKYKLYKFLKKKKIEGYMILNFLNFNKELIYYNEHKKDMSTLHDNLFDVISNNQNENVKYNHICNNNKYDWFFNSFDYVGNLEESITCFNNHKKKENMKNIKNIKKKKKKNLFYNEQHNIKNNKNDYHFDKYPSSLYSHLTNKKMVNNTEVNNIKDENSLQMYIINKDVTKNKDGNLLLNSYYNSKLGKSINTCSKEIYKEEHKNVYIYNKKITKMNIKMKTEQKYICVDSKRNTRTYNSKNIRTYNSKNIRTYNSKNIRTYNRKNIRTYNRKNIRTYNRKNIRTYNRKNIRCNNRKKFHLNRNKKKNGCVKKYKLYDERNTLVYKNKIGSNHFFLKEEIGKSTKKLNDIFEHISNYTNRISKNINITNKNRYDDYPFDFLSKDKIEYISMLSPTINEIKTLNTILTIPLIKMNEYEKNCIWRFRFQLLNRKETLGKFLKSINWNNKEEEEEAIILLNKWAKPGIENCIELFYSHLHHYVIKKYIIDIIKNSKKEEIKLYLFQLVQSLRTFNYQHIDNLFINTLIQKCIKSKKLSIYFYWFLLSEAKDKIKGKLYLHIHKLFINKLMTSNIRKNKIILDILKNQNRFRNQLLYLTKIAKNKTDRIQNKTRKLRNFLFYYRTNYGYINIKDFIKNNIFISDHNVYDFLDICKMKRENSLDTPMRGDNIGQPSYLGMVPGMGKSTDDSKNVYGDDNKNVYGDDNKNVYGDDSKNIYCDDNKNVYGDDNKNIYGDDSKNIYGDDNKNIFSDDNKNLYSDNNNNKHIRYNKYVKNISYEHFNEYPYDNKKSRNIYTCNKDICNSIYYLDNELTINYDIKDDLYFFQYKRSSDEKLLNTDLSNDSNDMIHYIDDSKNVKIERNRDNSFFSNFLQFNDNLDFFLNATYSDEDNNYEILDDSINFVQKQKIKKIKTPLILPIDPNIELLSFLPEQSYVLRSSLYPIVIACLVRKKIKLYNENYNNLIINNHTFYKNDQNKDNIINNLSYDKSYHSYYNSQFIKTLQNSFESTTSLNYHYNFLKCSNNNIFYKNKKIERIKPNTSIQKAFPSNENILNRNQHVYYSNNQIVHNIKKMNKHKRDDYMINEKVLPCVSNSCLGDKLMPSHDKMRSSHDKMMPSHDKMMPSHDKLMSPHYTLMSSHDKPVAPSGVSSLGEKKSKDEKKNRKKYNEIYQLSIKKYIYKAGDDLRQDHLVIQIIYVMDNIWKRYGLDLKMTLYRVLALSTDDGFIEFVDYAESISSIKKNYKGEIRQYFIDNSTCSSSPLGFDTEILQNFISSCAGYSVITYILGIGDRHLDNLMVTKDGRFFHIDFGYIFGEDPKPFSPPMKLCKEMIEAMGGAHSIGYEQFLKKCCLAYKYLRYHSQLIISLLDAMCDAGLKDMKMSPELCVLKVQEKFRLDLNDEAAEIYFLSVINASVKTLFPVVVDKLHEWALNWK
UniProt Q8IJD4: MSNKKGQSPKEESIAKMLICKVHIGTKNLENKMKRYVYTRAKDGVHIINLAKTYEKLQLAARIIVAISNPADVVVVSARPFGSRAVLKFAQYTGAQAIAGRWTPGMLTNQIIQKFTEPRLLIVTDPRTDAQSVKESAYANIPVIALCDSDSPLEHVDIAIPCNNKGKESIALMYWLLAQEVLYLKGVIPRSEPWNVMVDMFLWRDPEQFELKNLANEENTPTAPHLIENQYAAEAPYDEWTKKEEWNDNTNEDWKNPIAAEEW
UniProt Q8IKW5: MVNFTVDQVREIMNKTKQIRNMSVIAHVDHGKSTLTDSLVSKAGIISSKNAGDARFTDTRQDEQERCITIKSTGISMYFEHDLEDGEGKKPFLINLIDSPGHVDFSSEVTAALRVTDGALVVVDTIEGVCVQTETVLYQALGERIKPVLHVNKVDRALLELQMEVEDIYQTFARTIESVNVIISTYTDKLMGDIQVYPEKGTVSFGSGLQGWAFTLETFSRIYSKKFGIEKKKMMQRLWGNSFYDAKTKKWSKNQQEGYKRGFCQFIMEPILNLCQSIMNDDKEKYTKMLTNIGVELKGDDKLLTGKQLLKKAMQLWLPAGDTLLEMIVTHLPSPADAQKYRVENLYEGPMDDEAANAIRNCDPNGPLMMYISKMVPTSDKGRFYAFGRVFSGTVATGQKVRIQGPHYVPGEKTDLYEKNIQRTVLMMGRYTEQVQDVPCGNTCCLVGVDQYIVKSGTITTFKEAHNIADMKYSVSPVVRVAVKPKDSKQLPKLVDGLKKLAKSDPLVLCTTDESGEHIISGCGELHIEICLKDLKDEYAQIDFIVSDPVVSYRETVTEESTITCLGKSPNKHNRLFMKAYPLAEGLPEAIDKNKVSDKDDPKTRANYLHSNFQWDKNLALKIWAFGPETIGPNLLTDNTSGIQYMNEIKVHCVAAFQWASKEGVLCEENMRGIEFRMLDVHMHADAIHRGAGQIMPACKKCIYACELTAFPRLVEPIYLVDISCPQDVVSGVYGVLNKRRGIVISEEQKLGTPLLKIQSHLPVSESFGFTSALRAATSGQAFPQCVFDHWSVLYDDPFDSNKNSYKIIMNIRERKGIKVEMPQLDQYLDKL
UniProt P50250: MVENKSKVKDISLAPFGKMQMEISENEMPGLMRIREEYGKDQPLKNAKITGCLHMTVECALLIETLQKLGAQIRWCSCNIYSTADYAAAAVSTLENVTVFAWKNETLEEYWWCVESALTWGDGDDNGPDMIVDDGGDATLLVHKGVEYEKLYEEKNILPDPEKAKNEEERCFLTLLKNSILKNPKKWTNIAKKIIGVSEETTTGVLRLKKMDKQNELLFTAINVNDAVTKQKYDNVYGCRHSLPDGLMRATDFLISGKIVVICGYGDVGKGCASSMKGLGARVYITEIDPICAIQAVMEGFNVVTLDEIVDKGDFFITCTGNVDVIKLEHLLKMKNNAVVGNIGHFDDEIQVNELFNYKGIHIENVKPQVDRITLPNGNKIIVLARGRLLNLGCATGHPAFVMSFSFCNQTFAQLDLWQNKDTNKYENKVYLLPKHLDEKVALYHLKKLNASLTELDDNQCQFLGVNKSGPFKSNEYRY

Molecular target: T1, Kelch protein K13 (P. falciparum (endogenous in Cam3.II and CamWT parasites)) (UniProt Q8IDQ2)
T1 sequence: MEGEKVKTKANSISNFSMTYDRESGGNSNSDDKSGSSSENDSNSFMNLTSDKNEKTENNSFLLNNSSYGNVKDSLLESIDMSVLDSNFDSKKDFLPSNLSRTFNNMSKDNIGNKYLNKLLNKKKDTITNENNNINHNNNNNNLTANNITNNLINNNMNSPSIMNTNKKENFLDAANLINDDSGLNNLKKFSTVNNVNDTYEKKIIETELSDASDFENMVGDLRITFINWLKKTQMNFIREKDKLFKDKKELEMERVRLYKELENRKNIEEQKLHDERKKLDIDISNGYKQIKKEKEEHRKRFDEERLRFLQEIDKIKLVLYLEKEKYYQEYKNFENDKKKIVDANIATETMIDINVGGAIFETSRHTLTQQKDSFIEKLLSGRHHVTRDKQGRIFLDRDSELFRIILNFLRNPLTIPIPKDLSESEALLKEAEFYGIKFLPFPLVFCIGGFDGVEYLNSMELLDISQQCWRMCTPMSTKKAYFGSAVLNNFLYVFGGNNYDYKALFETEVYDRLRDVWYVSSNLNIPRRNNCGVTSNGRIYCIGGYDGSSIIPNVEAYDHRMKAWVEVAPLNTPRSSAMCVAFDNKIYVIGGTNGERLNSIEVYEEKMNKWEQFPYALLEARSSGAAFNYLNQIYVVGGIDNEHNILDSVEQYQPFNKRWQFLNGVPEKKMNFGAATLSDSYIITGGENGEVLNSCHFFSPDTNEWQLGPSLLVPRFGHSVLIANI
Test: affinity purification with mass spectrometry; co-IP with a mix of the K13 mAbs E3 and D9 (2.5 ug each) coupled to Pierce Direct IP columns; 500 ug parasite lysate in Pierce IP Lysis Buffer; cultures enriched in 0-12 hpi rings of Cam3.II (K13 WT, C580Y, R539T) and CamWT (WT, C580Y); eluates by LC-MS/MS; 6 experiments, 13 test samples, 10 negative controls

Substance | binding
Prohibitin, putative (from UniProt Q8IBC3) | binds
succinyl-CoA synthetase alpha subunit | binds
RNA-binding protein, putative (from UniProt C0H570) | binds
Rab18B | binds
ATP-dependent protease subunit ClpQ | binds
Dolichyl-phosphate-mannose-protein mannosyltransferase, putative | binds
Ferrodoxin NADP+ reductase (from UniProt Q8IBP8) | binds
40S ribosomal protein S16, putative (from UniProt Q8IAX5) | binds
Pyridoxine biosynthesis protein PDX1 (from UniProt C6KT50 1-301) | binds
Dicarboxylate/tricarboxylate carrier (from UniProt Q8IB73) | binds
2-oxoglutarate dehydrogenase E1 component (from UniProt Q8I6S5) | binds
RAP domain-containing protein (from UniProt Q8I289) | binds
Superoxide dismutase [Fe] (from UniProt C6KT71) | binds
Karyopherin beta (from UniProt Q8I3M5) | binds
26S proteasome regulatory subunit RPN7, putative (from UniProt Q8II71) | binds
Ribose-phosphate pyrophosphokinase, putative (from UniProt Q8IE40) | binds
Cytochrome bc1 complex subunit Rieske, putative (from UniProt Q8IL75) | binds
Rab1A | binds
ATP-dependent RNA helicase DBP1, putative (from UniProt Q8IAU1) | binds
ATP synthase F1 alpha subunit | binds
AP-2μ | no binding
Tudor staphylococcal nuclease (from UniProt Q8II01) | binds
Dynamin-like protein (from UniProt Q8IHR4) | binds
Malate:quinone oxidoreductase, putative (from UniProt C6KT09) | binds

Substance | binding
Multidrug resistance-associated protein 1 (from UniProt Q9U0N4) | binds
Eukaryotic initiation factor 4A | binds
Glycerol-3-phosphate 1-O-acyltransferase (from UniProt Q8I5S7) | binds
60S ribosomal protein L6-2, putative (from UniProt A0A5K1K8V8) | binds
EIF1α | binds
40S ribosomal protein S15A, putative (from UniProt O77395) | binds
40S ribosomal protein S10, putative (from UniProt Q8IBQ5) | binds
Inosine-5'-monophosphate dehydrogenase (from UniProt Q8I2U5) | binds
CPN20 (from UniProt Q50JA7) | binds
lipoamide acyltransferase | binds
Actin II (from UniProt Q8ILW9 1-376) | binds
40S ribosomal protein S9, putative (from UniProt Q8I3R0) | binds
Protein transport protein Sec23 (from UniProt Q8IB60) | binds
Protein transport protein Sec24A (from UniProt C0H5J6) | binds
Rab1B (from UniProt Q9BHN1 1-200) | binds
Elongation factor Tu, putative (from UniProt Q8IE20) | binds
60S ribosomal protein L4 (from UniProt Q8I431) | binds
26S proteasome regulatory subunit RPN1, putative (from UniProt O96153) | binds
PfCRT (from UniProt Q8IBZ9 1-424) | binds
Casein kinase 2, alpha subunit | binds
ATP-dependent zinc metalloprotease FTSH 1 | binds
Tubulin beta chain (from UniProt Q7KQL5 1-445) | binds
Sec61 | binds
PI3K (from UniProt Q8I3V5 1-2133) | no binding

Substance | binding
ATP-dependent 6-phosphofructokinase (from UniProt Q8I2Z8) | binds
Fumarate hydratase, putative (from UniProt Q8I2N6) | binds
mitochondrial-processing peptidase alpha subunit | binds
26S proteasome AAA-ATPase subunit RPT4, putative (from UniProt Q8IEQ1) | binds
Cysteine desulfurase, putative (from UniProt Q8IBI5) | binds
Eukaryotic translation initiation factor 2 subunit gamma, putative (from UniProt Q8ILY9) | binds
40S ribosomal protein S2 (from UniProt Q8IJD4 1-263) | binds
glutathione peroxidase-like thioredoxin peroxidase | binds
plasmepsin II (from UniProt Q8I6V3) | binds
26S proteasome AAA-ATPase subunit RPT2, putative (from UniProt Q8IJW0) | binds
isocitrate dehydrogenase | binds
S-adenosylmethionine synthetase | binds
Chaperone protein ClpB | binds
40S ribosomal protein S8e, putative (from UniProt Q8IM10) | binds
V-type proton ATPase subunit E, putative (from UniProt Q8I2H3) | binds
Rab7 | binds
elongation factor 2 (from UniProt Q8IKW5 1-832) | binds
Phosphoglucomutase 2, putative (from UniProt Q8I1V2) | binds
Succinyl-CoA ligase, putative (from UniProt Q8IL89) | binds
40S ribosomal protein S3 (from UniProt Q8IKH8) | binds
Adenosylhomocysteinase (from UniProt P50250 1-479) | binds
mitochondrial matrix protein 33 | binds
Ras-related protein Rab5C (from UniProt Q8I274) | binds
